Test results: patent US20230225990A1, “DIMETHYL SULFONE FOR TREATMENT OF CHRONICALLY HEAT STRESSED POULTRY” (Evonik Operations GmbH, priority 2020, published 2023)

Key:
[1] = tested on: male broilers subjected to chronic cyclic heat stress; assay: Carcass yield and portions on d-40; type: in vivo, broiler chickens (Ross 308); settings: d-40, relative to bird body weight
Text: Sampling of two birds per pen (with weight close to average weight of the pen) on d-40 after overnight fasting (no heat stress that day) • Carcass yield, breast percentage, thigh percentage, drumstick percentage and abdominal fat • Carcass yield: with skin, bled, without internal organs, without feet, without head, without neck, without abdominal fat; relative to bird body weight • Breast percentage: skinless, boneless; relative to bird body weight • Thigh percentage: with skin, with bone; relative to bird body weight • Drumstick percentage: with skin, with bone; relative to bird body weight • Abdominal fat percentage: abdominal fat; relative to bird body weight • Breast meat quality • Scoring of breast myopathies (wooden breast and white striping) • Wooden breast: normal, 0; mild, 1 and severe, 2 • White striations: normal, 0; mild, 1, and severe, 2 • pH and colour, both at time 0 h and 24 h (after sampling at time 0 h, breasts are stored at 4° C. until 24 h) • Drip loss, determined for periods 0-24 h and for period 0-72 h (after sampling at time 0 h, breasts are stored at 4° C. until 72 h, and weight without exuded water at 24 h and 72 h) • Press loss, determined at 24 h (after sampling at time 0 h, breasts are stored at 4° C. until 24 h, prior to determine press loss) • Oxidative stability (TBARS after simulated retail display)

[2] = tested on: male broilers subjected to chronic cyclic heat stress; assay: Breast meat characteristics on d-40; type: in vivo, broiler chickens (Ross 308); settings: for Drip loss 0-24 h / Drip loss 0-72 h / Press loss / TBARS: breast; for Drip loss 0-24 h / Drip loss 0-72 h / Breast colour L* 0 h / Breast colour a* 0 h / Breast colour b* 0 h / Breast pH 0 h: d-40; for Press loss: determined at 24 h; for TBARS: oxidative stability after simulated retail display; for White striations 0 h / White striations 24 h / Wooden breast 0 h / Wooden breast 24 h: count per level normal 0/mild 1/severe 2; for Breast colour L* 24 h / Breast colour a* 24 h / Breast colour b* 24 h / Breast pH 24 h: d-40, stored at 4° C.

Compound: CS(C)(=O)=O [DMS, dimethyl sulfone]
- Abdominal fat ([1]; 0.1% DMS in diet (T2)): 1.1%
- Breast percentage ([1]; 0.1% DMS in diet (T2)): 23.4%
- Carcass yield ([1]; 0.1% DMS in diet (T2)): 74.9%
- Drumstick ([1]; 0.1% DMS in diet (T2)): 10.0%
- Thigh percentage ([1]; 0.1% DMS in diet (T2)): 11.1%
- Abdominal fat ([1]; 0.2% DMS in diet (T3)): 1.1%
- Breast percentage ([1]; 0.2% DMS in diet (T3)): 24.1%
- Carcass yield ([1]; 0.2% DMS in diet (T3)): 75.9%
- Drumstick ([1]; 0.2% DMS in diet (T3)): 10.2%
- Thigh percentage ([1]; 0.2% DMS in diet (T3)): 11.2%
- Drip loss 0-24 h ([2]; 0.1% DMS in diet (T2)): 2.0%
- Drip loss 0-72 h ([2]; 0.1% DMS in diet (T2)): 2.7%
- Press loss ([2]; 0.1% DMS in diet (T2)): 20.4%
- TBARS ([2]; 0.1% DMS in diet (T2)): 0.125 μg MDA/g
- White striations 0 h ([2]; 0.1% DMS in diet (T2)): 21/1/0
- White striations 24 h ([2]; 0.1% DMS in diet (T2)): 21/1/0
- Wooden breast 0 h ([2]; 0.1% DMS in diet (T2)): 19/3/0
- Wooden breast 24 h ([2]; 0.1% DMS in diet (T2)): 15/7/0
- Breast colour L* 0 h ([2]; 0.1% DMS in diet (T2)): 56.7
- Breast colour a* 0 h ([2]; 0.1% DMS in diet (T2)): 3.6
- Breast colour b* 0 h ([2]; 0.1% DMS in diet (T2)): 15.4
- Breast pH 0 h ([2]; 0.1% DMS in diet (T2)): 6.8
- Breast colour L* 24 h ([2]; 0.1% DMS in diet (T2)): 56.7
- Breast colour a* 24 h ([2]; 0.1% DMS in diet (T2)): 5.0
- Breast colour b* 24 h ([2]; 0.1% DMS in diet (T2)): 16.7^b
- Breast pH 24 h ([2]; 0.1% DMS in diet (T2)): 6.0
- Drip loss 0-24 h ([2]; 0.2% DMS in diet (T3)): 1.8%
- Drip loss 0-72 h ([2]; 0.2% DMS in diet (T3)): 2.7%
- Press loss ([2]; 0.2% DMS in diet (T3)): 20.4%
- TBARS ([2]; 0.2% DMS in diet (T3)): 0.122 μg MDA/g
- White striations 0 h ([2]; 0.2% DMS in diet (T3)): 20/4/0
- White striations 24 h ([2]; 0.2% DMS in diet (T3)): 18/6/0
- Wooden breast 0 h ([2]; 0.2% DMS in diet (T3)): 22/2/0
- Wooden breast 24 h ([2]; 0.2% DMS in diet (T3)): 12/12/0
- Breast colour L* 0 h ([2]; 0.2% DMS in diet (T3)): 56.9
- Breast colour a* 0 h ([2]; 0.2% DMS in diet (T3)): 3.5
- Breast colour b* 0 h ([2]; 0.2% DMS in diet (T3)): 15.5
- Breast pH 0 h ([2]; 0.2% DMS in diet (T3)): 6.8
- Breast colour L* 24 h ([2]; 0.2% DMS in diet (T3)): 56.2
- Breast colour a* 24 h ([2]; 0.2% DMS in diet (T3)): 5.3
- Breast colour b* 24 h ([2]; 0.2% DMS in diet (T3)): 17.3^ab
- Breast pH 24 h ([2]; 0.2% DMS in diet (T3)): 6.0

Marks after values point to notes of the source that are not given here.
